# Laboratory results published in the supplement of paper PMC9135407.
# Where “and” joins values, the source holds several entries; their conditions need not be identical. Identical values can stand only once. Counter-ions that a name gives are not always drawn. ± gives the standard deviation of the averaged measurements. Some of the results follow. Part of the spread comes from offsets between plates or batches.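 Assay uses culture-activated primary human stellate myofibroblasts; lipid droplet recovery indicates inactivation. Measured: proportion of Hoechst-counted cells over a plate-specific Bodipy cutoff, duplicate wells, DMSO and nortriptyline as per-plate negative and positive controls. A hit scores, control-normalized, above the plate's top-tenth-percentile nortriptyline wells or ranks among its three best wells. Final well concentrations not reported.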
# Tested on: primary human hepatic stellate cells (donor 1)
# Assay: percent Bodipy-positive cells; higher = more lipid droplet accumulation
# Conditions: 48 h
# Method: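 Primary lipid accumulation screen in primary human hepatic stellate cell myofibroblasts (donor 1, passage 8) in 384-well plates. 100 nL of library compound was pin-transferred into 30 µL medium in duplicate, and cells were treated for 48 h. The 'Scaled' score combines distance from plate baseline, toxicity and reproducibility penalties, and is normalised to nortriptyline (positive) and DMSO (negative) controls on each plate. A hit is defined as scaled >0.85 or among the top 3 wells per plate.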
# [1] = library stock concentration: 10 mM
# [2] = library stock concentration: 3.33 mM
# [3] = library stock concentration: 1 mM
# [4] = library stock concentration: 400 uM
# [5] = library stock concentration: 2 mM
# [6] = library stock concentration: 80 uM
structure (smiles),measurement,setting,value
C[C@H]1O[C@@H](O[C@H]2[C@@H](O)C[C@H](O[C@H]3[C@@H](O)C[C@H](O[C@H]4CC[C@@]5(C)[C@H](CC[C@@H]6[C@@H]5C[C@@H](O)[C@]5(C)[C@@H](C7=CC(=O)OC7)CC[C@]65O)C4)O[C@@H]3C)O[C@@H]2C)C[C@H](O)[C@@H]1O,percent Bodipy-positive cells,[1],97.8 ± 2.5%
C[C@H]1O[C@@H](O[C@H]2[C@@H](O)C[C@H](O[C@H]3[C@@H](O)C[C@H](O[C@H]4CC[C@@]5(C)[C@H](CC[C@@H]6[C@@H]5C[C@@H](O)[C@]5(C)[C@@H](C7=CC(=O)OC7)CC[C@]65O)C4)O[C@@H]3C)O[C@@H]2C)C[C@H](O)[C@@H]1O [Digoxin],percent Bodipy-positive cells,,90.25 ± 0.78%
same,percent Bodipy-positive cells,[2],86.25 ± 0.43%
same,percent Bodipy-positive cells,[1],97% and 75.5%
CN1CCN(C2=Nc3cc(F)ccc3Cc3ccccc32)CC1 [Fluperlapine],percent Bodipy-positive cells,[1],61 ± 16%
COc1cc2ncnc(Nc3ccc(NC(=O)c4ccccc4)cc3)c2cc1OC [Aurora Kinase Inhibitor II],percent Bodipy-positive cells,[2],13.2 ± 2.9%
O=C(OCC(O)CO)c1ccccc1Nc1ccnc2cc(Cl)ccc12 (stereo not given) [Glafenine],percent Bodipy-positive cells,[1],24.8 ± 0.41%
O=C(OCC(O)CO)c1ccccc1Nc1ccnc2cc(Cl)ccc12 (stereo not given) [Glafenine hydrochloride],percent Bodipy-positive cells,,24.1 ± 5%
COc1cc(N)c(Cl)cc1C(=O)OCCCN1CCCCC1,percent Bodipy-positive cells,[1],17.1 ± 2.9%
CC(C(=O)O)c1ccc(-c2ccccc2)c(F)c1 (stereo not given) [(?)-Flurbiprofen],percent Bodipy-positive cells,[3],7.42 ± 1.3%
CC(C(=O)O)c1ccc(-c2ccccc2)c(F)c1 (stereo not given) [Flurbiprofen],percent Bodipy-positive cells,,9.52 ± 2.6%
same,percent Bodipy-positive cells,[2],7.47 ± 3.6%
COc1cc2c(N3CCN(C(=O)Nc4ccc(OC(C)C)cc4)CC3)ncnc2cc1OCCCN1CCCCC1,percent Bodipy-positive cells,[4],39.3 ± 17%
same,percent Bodipy-positive cells,[5],48.4 ± 9.3%
same,percent Bodipy-positive cells,[1],80.2 ± 6.3%
COc1cc2c(N3CCN(C(=O)Nc4ccc(OC(C)C)cc4)CC3)ncnc2cc1OCCCN1CCCCC1 [Tandutinib (MLN518)],percent Bodipy-positive cells,[2],51.3 ± 4.4%
same,percent Bodipy-positive cells,[1],87.5 ± 6%
NC(=O)c1cn(Cc2c(F)cccc2F)nn1 [Rufinamide],percent Bodipy-positive cells,[2],14.3 ± 7.3%
Cc1cc(O)c2c(c1)C(=O)c1cccc(O)c1C2=O [Chrysophanic Acid],percent Bodipy-positive cells,[2],7.07 ± 1.7%
same,percent Bodipy-positive cells,[1],16.2 ± 4.7%
"CCCCCC(=O)OC[C@H](CO)OC(=O)CCCCC [1,2-Dihexanoyl-sn-glycerol]",percent Bodipy-positive cells,[3],6.5 ± 2.1%
Cc1c(OCC(F)(F)F)ccnc1C[S@@+]([O-])c1nc2ccccc2[nH]1,percent Bodipy-positive cells,[1],30.7 ± 5.9%
Cc1c(OCC(F)(F)F)ccnc1C[S@@+]([O-])c1nc2ccccc2[nH]1 [Dexlansoprazole],percent Bodipy-positive cells,[2],9.53 ± 4.5%
same,percent Bodipy-positive cells,[1],30.8 ± 2.2%
O=c1ccc2cc(O)c(O)cc2o1 [Esculetin],percent Bodipy-positive cells,,8.2 ± 2.2%
same,percent Bodipy-positive cells,[1],18.3 ± 2.7%
Cc1ccc(C(=O)Nc2cccc(C(F)(F)F)c2)cc1Nc1cncc(C(N)=O)c1,percent Bodipy-positive cells,[6],14.4 ± 8.3%
same,percent Bodipy-positive cells,[4],7.48 ± 0.39%
same,percent Bodipy-positive cells,[5],13.2 ± 3.8%
same,percent Bodipy-positive cells,[1],23.8 ± 3.1%
COc1ccc(CCN(C)CCCN2CCc3cc(OC)c(OC)cc3CC2=O)cc1OC [Zatebradine hydrochloride],percent Bodipy-positive cells,[1],6.71 ± 0.15%
NCc1cccc2ccncc12 [8-Isoquinoline methanamine (hydrochloride)],percent Bodipy-positive cells,[3],8.38 ± 0.45%
CN1CCC(=C2c3ccccc3CCc3cccnc32)CC1 [Azatadine dimaleate],percent Bodipy-positive cells,[2],17 ± 6.6%
same,percent Bodipy-positive cells,[1],54.3 ± 5.7%
CN1CCC(=C2c3ccccc3CCc3cccnc32)CC1,percent Bodipy-positive cells,[1],69.5 ± 0.73%
Nc1nc2ccc(OC(F)(F)F)cc2s1 [Riluzole],percent Bodipy-positive cells,[2],16.7 ± 4.4%
same,percent Bodipy-positive cells,library stock concentration: 9.6 mM,9.99 ± 2.7%
same,percent Bodipy-positive cells,[1],12.1% and 22.3%
Nc1nc2ccc(OC(F)(F)F)cc2s1 [Riluzole hydrochloride],percent Bodipy-positive cells,,43.1 ± 4.5%
same,percent Bodipy-positive cells,[1],9.93 ± 1.3%
COc1ccc2c(c1)c(CC(=O)O)c(C)n2C(=O)c1ccc(Cl)cc1 [Indomethacin],percent Bodipy-positive cells,,29.2 ± 2%
same,percent Bodipy-positive cells,[3],6.74 ± 1.1%
same,percent Bodipy-positive cells,[2],16.4 ± 1.3%
same,percent Bodipy-positive cells,library stock concentration: 10.4 mM,8.56 ± 1.4%
same,percent Bodipy-positive cells,library stock concentration: 14 mM,18.5 ± 1.9%
CCCCC[C@H](O)/C=C/[C@H]1C(=O)C[C@H](O)[C@@H]1C/C=C\CCCC(=O)OCC(O)CO (stereo not given in full) [Prostaglandin D2-1-glyceryl ester],percent Bodipy-positive cells,[3],12.6 ± 1.2%
CCOC(=O)C1(CCCCCCOc2ccc(Cl)cc2)CO1 (stereo not given),percent Bodipy-positive cells,[1],17.6 ± 3.8%
CNC(=O)c1cc(Oc2ccc(NC(=O)Nc3cc(C(C)(C)C)nn3-c3ccc4ncccc4c3)c(F)c2)ccn1 [DCC-2036 (Rebastinib)],percent Bodipy-positive cells,[2],12.6 ± 1.8%
same,percent Bodipy-positive cells,[1],25.1 ± 5.4%
CNC(=O)c1cc(Oc2ccc(NC(=O)Nc3cc(C(C)(C)C)nn3-c3ccc4ncccc4c3)c(F)c2)ccn1,percent Bodipy-positive cells,[6],12.1 ± 3.4%
same,percent Bodipy-positive cells,[4],12.4 ± 2.7%
same,percent Bodipy-positive cells,[5],12.4 ± 4.6%
same,percent Bodipy-positive cells,[1],14.4 ± 0.95%
OC[C@H]1O[C@H](O[C@]2(CCl)O[C@H](CCl)[C@@H](O)[C@@H]2O)[C@H](O)[C@@H](O)[C@H]1Cl [Sucralose],percent Bodipy-positive cells,[2],12.9 ± 3.8%
same,percent Bodipy-positive cells,library stock concentration: 5 mM,14.2 ± 5.3%
same,percent Bodipy-positive cells,[1],43 ± 10%
COC(=O)[C@H]1[C@H]2C[C@@H]3c4[nH]c5cc(OC)ccc5c4CCN3C[C@H]2C[C@@H](OC(=O)c2cc(OC)c(OC)c(OC)c2)[C@@H]1OC [Reserpine],percent Bodipy-positive cells,[1],82.9 ± 4.6%
O=C(O)c1cc(=O)cc(C(=O)O)[nH]1 [Chelidamic acid],percent Bodipy-positive cells,[1],40.3 ± 2.4%
CC(C)C[C@H](NC(=O)[C@@H](NC(=O)c1cccc(-c2ccccc2)n1)[C@@H](C)O)B(O)O,percent Bodipy-positive cells,[2],62.9 ± 6%
same,percent Bodipy-positive cells,[1],85.1 ± 0.92%
